Results taken from the supplement of paper PMC10849652.
The list shows a part of the results.

Chains of the proteins cited; added tags and fusions are not shown. Lines headed by an entry give the natural chain unless they say otherwise; changes in a name come on top.
UniProt Q15007: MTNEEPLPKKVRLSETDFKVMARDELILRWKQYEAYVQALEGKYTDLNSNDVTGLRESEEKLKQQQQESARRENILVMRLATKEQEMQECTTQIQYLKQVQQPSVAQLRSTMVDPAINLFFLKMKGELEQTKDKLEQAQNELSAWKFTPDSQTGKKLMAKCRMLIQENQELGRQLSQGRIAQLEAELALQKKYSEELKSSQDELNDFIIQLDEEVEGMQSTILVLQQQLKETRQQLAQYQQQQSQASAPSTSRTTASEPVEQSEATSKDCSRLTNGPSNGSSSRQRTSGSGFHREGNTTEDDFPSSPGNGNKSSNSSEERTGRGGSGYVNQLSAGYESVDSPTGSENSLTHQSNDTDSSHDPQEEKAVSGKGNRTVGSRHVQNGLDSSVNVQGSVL
UniProt P09327: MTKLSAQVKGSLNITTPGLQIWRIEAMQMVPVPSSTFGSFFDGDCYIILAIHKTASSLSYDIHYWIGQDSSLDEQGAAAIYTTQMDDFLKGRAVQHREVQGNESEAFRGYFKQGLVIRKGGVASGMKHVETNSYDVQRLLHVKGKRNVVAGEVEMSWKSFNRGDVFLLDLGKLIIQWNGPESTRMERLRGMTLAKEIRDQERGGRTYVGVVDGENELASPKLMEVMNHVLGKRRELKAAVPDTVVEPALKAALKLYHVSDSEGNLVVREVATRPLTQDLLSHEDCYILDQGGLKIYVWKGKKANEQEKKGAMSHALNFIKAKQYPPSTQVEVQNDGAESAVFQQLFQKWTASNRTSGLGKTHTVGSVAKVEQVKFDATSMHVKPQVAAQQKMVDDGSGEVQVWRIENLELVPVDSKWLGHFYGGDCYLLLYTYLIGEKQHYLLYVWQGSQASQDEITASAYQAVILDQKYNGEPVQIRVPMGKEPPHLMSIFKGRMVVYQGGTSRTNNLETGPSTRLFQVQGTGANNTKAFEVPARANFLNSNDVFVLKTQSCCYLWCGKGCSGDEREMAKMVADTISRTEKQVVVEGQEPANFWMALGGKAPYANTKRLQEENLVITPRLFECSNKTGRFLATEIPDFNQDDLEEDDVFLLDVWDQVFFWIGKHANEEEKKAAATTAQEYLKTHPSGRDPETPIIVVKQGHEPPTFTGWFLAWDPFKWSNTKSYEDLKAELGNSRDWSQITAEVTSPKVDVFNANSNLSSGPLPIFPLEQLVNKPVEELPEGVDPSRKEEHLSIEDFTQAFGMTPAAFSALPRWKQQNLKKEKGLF
UniProt Q9P1Q0: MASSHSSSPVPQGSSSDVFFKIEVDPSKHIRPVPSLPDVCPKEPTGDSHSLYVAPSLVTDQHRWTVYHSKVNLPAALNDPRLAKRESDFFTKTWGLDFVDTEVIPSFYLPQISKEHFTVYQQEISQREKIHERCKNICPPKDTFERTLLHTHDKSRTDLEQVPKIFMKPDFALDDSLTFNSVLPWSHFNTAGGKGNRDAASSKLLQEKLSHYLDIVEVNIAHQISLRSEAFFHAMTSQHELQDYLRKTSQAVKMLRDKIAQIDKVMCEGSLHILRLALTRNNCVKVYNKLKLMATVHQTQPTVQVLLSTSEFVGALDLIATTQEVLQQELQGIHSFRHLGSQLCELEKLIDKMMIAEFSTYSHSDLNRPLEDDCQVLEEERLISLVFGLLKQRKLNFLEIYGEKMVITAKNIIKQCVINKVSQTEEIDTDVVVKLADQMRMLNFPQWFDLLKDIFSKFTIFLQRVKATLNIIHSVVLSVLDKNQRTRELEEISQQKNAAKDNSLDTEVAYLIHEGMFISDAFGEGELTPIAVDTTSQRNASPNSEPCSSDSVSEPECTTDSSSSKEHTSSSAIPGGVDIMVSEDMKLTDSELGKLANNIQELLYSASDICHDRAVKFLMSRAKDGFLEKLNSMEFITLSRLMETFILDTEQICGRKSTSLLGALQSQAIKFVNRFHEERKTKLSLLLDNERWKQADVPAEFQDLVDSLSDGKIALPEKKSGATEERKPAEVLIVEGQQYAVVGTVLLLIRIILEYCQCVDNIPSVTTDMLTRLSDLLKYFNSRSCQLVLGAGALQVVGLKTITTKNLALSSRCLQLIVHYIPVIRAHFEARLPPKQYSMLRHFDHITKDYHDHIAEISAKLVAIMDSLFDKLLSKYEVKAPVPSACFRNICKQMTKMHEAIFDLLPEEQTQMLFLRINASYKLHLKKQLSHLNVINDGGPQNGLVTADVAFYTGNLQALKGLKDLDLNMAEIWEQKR
UniProt Q69YN4: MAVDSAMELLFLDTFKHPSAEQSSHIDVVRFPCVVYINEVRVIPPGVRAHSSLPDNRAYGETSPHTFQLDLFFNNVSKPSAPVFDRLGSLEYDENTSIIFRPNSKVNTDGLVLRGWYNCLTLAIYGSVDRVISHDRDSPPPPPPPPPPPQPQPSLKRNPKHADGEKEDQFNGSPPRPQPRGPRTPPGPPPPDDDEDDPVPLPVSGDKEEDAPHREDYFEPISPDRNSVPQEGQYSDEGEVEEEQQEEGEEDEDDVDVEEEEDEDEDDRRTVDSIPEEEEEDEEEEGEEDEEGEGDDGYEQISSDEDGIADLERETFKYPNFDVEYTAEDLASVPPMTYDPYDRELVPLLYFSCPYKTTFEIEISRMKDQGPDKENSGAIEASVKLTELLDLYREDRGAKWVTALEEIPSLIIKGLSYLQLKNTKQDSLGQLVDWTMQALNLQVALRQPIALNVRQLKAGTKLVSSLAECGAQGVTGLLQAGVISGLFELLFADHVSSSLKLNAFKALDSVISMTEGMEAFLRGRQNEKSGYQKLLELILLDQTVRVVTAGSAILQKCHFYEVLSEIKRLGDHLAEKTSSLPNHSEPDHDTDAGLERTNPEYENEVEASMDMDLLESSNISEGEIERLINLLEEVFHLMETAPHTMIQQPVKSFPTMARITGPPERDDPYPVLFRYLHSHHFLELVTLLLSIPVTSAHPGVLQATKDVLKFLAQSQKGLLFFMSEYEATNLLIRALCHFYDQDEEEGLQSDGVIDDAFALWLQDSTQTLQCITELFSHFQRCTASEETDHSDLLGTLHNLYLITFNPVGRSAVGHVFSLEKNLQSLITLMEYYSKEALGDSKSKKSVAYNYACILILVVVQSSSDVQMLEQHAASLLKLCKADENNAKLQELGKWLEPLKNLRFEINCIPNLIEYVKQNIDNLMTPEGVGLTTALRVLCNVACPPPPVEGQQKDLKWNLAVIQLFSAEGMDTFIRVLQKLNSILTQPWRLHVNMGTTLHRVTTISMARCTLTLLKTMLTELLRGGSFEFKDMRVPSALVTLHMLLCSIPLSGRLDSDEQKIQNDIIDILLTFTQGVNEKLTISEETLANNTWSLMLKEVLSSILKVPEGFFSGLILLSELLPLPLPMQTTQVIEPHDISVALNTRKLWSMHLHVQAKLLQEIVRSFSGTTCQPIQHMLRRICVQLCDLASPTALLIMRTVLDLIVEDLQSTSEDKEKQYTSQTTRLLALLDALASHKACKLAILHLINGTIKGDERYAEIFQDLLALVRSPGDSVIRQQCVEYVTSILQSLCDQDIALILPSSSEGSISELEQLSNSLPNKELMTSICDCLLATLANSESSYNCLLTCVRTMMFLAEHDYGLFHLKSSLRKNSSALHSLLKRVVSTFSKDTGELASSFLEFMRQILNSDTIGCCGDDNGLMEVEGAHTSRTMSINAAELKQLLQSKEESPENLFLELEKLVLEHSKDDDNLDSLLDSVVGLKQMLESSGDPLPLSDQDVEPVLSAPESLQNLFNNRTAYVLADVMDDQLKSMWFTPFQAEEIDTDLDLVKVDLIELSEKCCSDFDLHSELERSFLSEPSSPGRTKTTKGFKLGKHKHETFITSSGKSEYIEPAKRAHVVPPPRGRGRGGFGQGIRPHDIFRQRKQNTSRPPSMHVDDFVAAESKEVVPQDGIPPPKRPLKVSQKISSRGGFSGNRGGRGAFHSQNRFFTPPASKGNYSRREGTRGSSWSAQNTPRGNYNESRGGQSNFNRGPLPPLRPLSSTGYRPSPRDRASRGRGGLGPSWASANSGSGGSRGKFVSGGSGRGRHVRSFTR
UniProt Q9H977: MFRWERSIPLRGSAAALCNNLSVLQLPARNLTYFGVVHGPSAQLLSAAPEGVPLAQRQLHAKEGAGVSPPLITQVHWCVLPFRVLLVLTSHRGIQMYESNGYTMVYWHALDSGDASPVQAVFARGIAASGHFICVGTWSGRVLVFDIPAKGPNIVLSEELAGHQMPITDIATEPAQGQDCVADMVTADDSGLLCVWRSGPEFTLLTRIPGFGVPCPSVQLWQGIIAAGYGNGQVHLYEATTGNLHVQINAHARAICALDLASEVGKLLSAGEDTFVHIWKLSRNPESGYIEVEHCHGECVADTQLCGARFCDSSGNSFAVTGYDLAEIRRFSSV
UniProt Q8NEZ3: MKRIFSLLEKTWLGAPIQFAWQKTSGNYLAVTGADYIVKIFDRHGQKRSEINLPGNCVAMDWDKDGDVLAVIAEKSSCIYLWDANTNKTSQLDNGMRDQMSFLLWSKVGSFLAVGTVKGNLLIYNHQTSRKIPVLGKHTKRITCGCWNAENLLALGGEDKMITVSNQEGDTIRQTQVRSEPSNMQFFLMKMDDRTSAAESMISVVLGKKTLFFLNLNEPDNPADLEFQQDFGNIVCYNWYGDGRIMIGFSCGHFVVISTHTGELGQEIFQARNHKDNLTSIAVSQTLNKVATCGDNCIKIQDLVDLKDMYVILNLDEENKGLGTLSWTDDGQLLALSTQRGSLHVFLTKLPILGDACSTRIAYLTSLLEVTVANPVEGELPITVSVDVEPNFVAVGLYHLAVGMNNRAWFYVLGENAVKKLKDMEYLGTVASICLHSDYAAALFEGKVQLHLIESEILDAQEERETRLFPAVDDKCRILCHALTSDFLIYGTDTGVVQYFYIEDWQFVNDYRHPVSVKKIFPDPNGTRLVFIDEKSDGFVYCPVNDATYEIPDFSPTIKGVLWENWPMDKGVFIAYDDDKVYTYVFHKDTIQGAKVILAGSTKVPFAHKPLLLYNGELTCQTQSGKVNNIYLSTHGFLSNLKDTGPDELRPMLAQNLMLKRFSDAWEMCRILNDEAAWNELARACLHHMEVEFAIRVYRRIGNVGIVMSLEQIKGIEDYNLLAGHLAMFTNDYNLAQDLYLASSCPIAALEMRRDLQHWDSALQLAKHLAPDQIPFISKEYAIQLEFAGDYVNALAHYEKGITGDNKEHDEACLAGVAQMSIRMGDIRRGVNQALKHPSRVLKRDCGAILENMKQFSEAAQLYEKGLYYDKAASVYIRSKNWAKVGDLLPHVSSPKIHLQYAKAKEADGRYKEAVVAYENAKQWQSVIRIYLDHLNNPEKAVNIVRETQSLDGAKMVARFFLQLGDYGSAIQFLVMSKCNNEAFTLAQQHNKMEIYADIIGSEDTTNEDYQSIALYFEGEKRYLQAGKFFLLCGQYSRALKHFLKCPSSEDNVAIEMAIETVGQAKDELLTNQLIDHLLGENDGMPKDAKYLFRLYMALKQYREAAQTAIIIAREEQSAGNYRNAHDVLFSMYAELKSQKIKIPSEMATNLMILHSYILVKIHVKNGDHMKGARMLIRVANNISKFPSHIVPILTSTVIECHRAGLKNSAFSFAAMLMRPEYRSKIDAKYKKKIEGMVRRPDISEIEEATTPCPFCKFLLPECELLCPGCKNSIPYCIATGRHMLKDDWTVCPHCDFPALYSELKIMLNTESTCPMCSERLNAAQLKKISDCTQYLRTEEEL
UniProt Q8IWA0: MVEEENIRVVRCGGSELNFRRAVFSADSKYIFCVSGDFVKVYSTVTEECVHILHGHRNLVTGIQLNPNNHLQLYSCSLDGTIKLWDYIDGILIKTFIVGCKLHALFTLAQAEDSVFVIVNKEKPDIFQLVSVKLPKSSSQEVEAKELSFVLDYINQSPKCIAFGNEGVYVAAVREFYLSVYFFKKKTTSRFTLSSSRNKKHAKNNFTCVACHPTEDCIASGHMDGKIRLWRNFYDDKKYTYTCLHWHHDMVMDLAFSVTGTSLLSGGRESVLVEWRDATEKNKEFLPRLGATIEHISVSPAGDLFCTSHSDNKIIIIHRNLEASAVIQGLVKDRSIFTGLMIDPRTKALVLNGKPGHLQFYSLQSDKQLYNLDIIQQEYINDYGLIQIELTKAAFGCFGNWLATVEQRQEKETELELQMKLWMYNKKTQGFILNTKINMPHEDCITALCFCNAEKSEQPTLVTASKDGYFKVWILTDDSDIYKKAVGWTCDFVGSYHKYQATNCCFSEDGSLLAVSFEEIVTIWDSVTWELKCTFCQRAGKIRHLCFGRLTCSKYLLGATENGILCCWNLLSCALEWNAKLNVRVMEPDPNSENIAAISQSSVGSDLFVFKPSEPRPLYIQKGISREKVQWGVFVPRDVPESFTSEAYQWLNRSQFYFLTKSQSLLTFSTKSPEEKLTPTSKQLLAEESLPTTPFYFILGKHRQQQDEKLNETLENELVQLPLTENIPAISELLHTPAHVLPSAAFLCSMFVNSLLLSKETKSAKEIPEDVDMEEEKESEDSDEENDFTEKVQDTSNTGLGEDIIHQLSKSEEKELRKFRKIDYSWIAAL

Key:
Experiment in all cases: log2 fold change, soluble protein after heating vs DMSO (PISA); higher = thermal stabilisation; K562 cells, 10 uM, 30 min; active = over 0.2 and 3.5 SD of the protein, either way, in both replicates (recomputed)
[1] = compound: CS(=O)(=O)c1ccc(-c2cnc(N)c(C(=O)Nc3ccccc3)n2)cc1
Procedure, shortened: (§1)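 Values are thermal stability changes relative to control samples and are taken from duplicates. They are stated as log2 fold changes. Before quantification by TMTpro 16plex LC-MS/MS with equalised channel sums, K562 cells at 2×10^6 cells/mL were treated with 10 μM compound for 30 min, heated in aliquots for 3 min across 48°C-58°C, pooled, extracted in PBS with 0.5% NP-40 at 4°C, and centrifuged at 21,000xg for 90 min to give the soluble supernatant.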

bafetinib = compound: Cc1ccc(NC(=O)c2ccc(CN3CC[C@H](N(C)C)C3)c(C(F)(F)F)c2)cc1Nc1nccc(-c2cncnc2)n1 [bafetinib]
Procedure, shortened: as §1

duvelisib = compound: C[C@H](Nc1ncnc2nc[nH]c12)c1cc2cccc(Cl)c2c(=O)n1-c1ccccc1 [duvelisib]
Procedure, shortened: as §1

[2] = compound: Cc1cc(SCc2sc(-c3ccc(C(F)(F)F)cc3)nc2C)ccc1OCC(=O)O
Procedure, shortened: as §1

dasatinib = compound: Cc1nc(Nc2ncc(C(=O)Nc3c(C)cccc3Cl)s2)cc(N2CCN(CCO)CC2)n1 [dasatinib]
Procedure, shortened: as §1

tipifarnib = compound: Cn1cncc1[C@@](N)(c1ccc(Cl)cc1)c1ccc2c(c1)c(-c1cccc(Cl)c1)cc(=O)n2C [tipifarnib]
Procedure, shortened: as §1

[3] = compound: C[C@@H]1COCCN1C2=NC(=NC(=C2)C3(CC3)S(=O)(=O)C)C4=C5C=CNC5=CC=C4
Procedure, shortened: as §1

gandotinib = compound: Cc1cc(Nc2cc(CN3CCOCC3)c3nc(C)c(Cc4ccc(Cl)cc4F)n3n2)n[nH]1 [gandotinib]
Procedure, shortened: as §1

[4] = compound: Cc1cccc(CC(=O)N2CCc3c2ccc(-c2cn(C)c4ncnc(N)c24)c3F)n1
Procedure, shortened: as §1

crizotinib = compound: C[C@@H](Oc1cc(-c2cnn(C3CCNCC3)c2)cnc1N)c1c(Cl)ccc(F)c1Cl [crizotinib]
Procedure, shortened: as §1

[5] = compound: C[C@H](C1=CC=C(C=C1)C(=O)NC2=C3C=CNC3=NC=C2)N
Procedure, shortened: as §1

doramapimod = compound: Cc1ccc(-n2nc(C(C)(C)C)cc2NC(=O)Nc2ccc(OCCN3CCOCC3)c3ccccc23)cc1 [doramapimod]
Procedure, shortened: as §1

ispinesib = compound: Cc1ccc(C(=O)N(CCCN)[C@@H](c2nc3cc(Cl)ccc3c(=O)n2Cc2ccccc2)C(C)C)cc1 [ispinesib]
Procedure, shortened: as §1

nilotinib = compound: Cc1cn(-c2cc(NC(=O)c3ccc(C)c(Nc4nccc(-c5cccnc5)n4)c3)cc(C(F)(F)F)c2)cn1 [nilotinib]
Procedure, shortened: as §1

[6] = compound: Cc1nc(Nc2n[nH]c3c2CN(C(=O)N[C@H](CN(C)C)c2ccccc2)C3(C)C)c2sccc2n1
Procedure, shortened: as §1

[7] = compound: Cc1ncc(-c2ccnc(Nc3ccc(S(C)(=O)=O)cc3)n2)n1C(C)C
Procedure, shortened: as §1

[8] = compound: Cn1cc(-c2ccc3c(c2)CCN3C(=O)Cc2cccc(C(F)(F)F)c2)c2c(N)ncnc21
Procedure, shortened: as §1

[9] = compound: Cn1cc(-c2ccc3nnc(C(F)(F)c4ccc5ncccc5c4)n3n2)cn1
Procedure, shortened: as §1

mubritinib = compound: FC(F)(F)c1ccc(/C=C/c2nc(COc3ccc(CCCCn4ccnn4)cc3)co2)cc1 [mubritinib]
Procedure, shortened: as §1

tozasertib = compound: Cc1cc(Nc2cc(N3CCN(C)CC3)nc(Sc3ccc(NC(=O)C4CC4)cc3)n2)n[nH]1 [tozasertib]
Procedure, shortened: as §1

Measured: log2 fold change

WARS1 (UniProt G3V3P2)
inactive: [1] -0.07 | bafetinib -0.076

WTAP (UniProt Q15007)
inactive: [1] -0.04 | duvelisib -0.294 | [2] 0.077 | dasatinib -0.081 | tipifarnib -0.081

WBP1L isoform 2 (UniProt Q9NX94)
inactive: bafetinib -0.042

VIL1 (UniProt P09327)
inactive: [3] -0.01 | gandotinib -0.201 | bafetinib -0.091 | [4] 0.037

VWA3B isoform 6 (UniProt Q502W6)
inactive: crizotinib -0.012 | [3] 0.074 | [5] 0.045 | gandotinib -0.08 | [2] 0.172 | doramapimod 0.079 | ispinesib -0.266 | bafetinib 0.074 | [4] 0.024 | nilotinib -0.128 | [6] 0.075 | dasatinib 0.148 | [7] -0.129 | [8] 0.045 | [9] 0.003 | tipifarnib 0.047 | mubritinib 0.014

VPS54 (UniProt Q9P1Q0)
inactive: tozasertib -0.049

2 neighbouring entries already listed:
WBP1L isoform 2 (UniProt Q9NX94)
inactive: bafetinib -0.042

VIL1 (UniProt P09327)
inactive: [3] -0.01 | gandotinib -0.201 | bafetinib -0.091 | [4] 0.037

The listing continues.

VDAC2 (UniProt Q5JSD1)
inactive: [3] 0.25 | ispinesib -0.03 | bafetinib 0.165 | nilotinib -0.155 | [6] 0.001 | [7] -0.089 | [9] 0.114 | tipifarnib 0.095 | mubritinib 0.118

XAB2 (UniProt Q9HCS7)
active: crizotinib -0.69
inactive: [3] -0.223 | [2] 0.013 | doramapimod -0.035 | ispinesib -0.223 | dasatinib -0.092 | [9] 0.125 | mubritinib -0.151

VIRMA (UniProt Q69YN4)
inactive: crizotinib 0.095 | [3] 0.232 | [5] 0.029 | gandotinib 0.11 | doramapimod 0.03 | ispinesib -0.042 | bafetinib -0.066 | [4] -0.195 | nilotinib -0.03 | [6] -0.042 | [7] 0.041 | [8] -0.193 | [9] 0.05

WDR54 isoform 4 (UniProt Q9H977)
inactive: duvelisib 0.273 | [2] 0.148 | nilotinib -0.087 | [6] -0.249 | dasatinib -0.112 | [7] -0.049

WDR19 (UniProt Q8NEZ3)
inactive: [5] -0.003 | duvelisib -0.034 | tozasertib -0.241 | [2] 0.02 | ispinesib 0.064 | bafetinib -0.288 | dasatinib -0.062 | [8] 0.074 | [9] 0.001 | tipifarnib 0.165

VPS35, A0A1W2PP10
inactive: crizotinib -0.267 | [3] -0.221 | tozasertib 0.008 | doramapimod 0.059 | bafetinib -0.032 | nilotinib 0.024 | [6] -0.136 | [7] -0.027 | tipifarnib 0.084 | mubritinib -0.004

VWF (UniProt P04275)
inactive: crizotinib 0 | doramapimod -0.063

WDR75 (UniProt Q8IWA0)
inactive: crizotinib -0.07 | [3] -0.03 | [5] 0.185 | [2] 0.112 | doramapimod 0.145 | ispinesib -0.219 | bafetinib 0.019 | nilotinib -0.214 | [6] 0.041 | dasatinib 0.085 | [7] 0.109 | [8] -0.252 | [9] -0.045 | tipifarnib -0.021 | mubritinib -0.329
